From PubChem BioAssay AID651789 (National Center for Advancing Translational Sciences (NCATS), 2012)
The shares of active, inactive and inconclusive entries below differ from those in the screen. Potencies of inconclusive entries are doubtful fits and often do not repeat. The source made the active and inactive calls. The call rests on the fitted dose curve; in most records, active means well fitted inhibition curve with a large enough effect; inconclusive means small, poorly fitted or top-dose-only effect; inactive means no such curve, though single readings can be large or run the other way.

experiment: Acumen qHTS Assay for Inhibitors of the mTORC1 Signaling Pathway in WT MEF Cells: Hit Validation; settings: Acumen imaging; series mostly up to 37.3 µM; activity change, negative = inhibition: at the top concentration; further: nearly all actives have a fitted effect of over 60% in size;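 on activity change, negative = inhibition: phospho-rpS6 Ser235/236 immunofluorescence normalised to propidium iodide cell stain; percent of cells above a cutoff set by 7.5 nM rapamycin treated wells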
Procedure, shortened: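 Read-out is immunofluorescent phospho-rpS6 (Ser235/236) normalised to PI-stained cell number, reported as % active cells using a 7.5 nM rapamycin threshold. Cells: WT or Tsc2-/-, p53-/- MEFs, compound-exposed 24 h at 37C; PI count also tracks viability.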
Potency means the concentration at half of the fitted maximal effect.

For O=C(c1ccc(CS(=O)c2ccccc2Cl)o1)N1CCN(c2cccc(C(F)(F)F)c2)CC1 (centres undefined), which Potency is on record?
Its Potency is inconclusive: 1.17 µM [inhibitor, full curve].

With COc1ccc(C)cc1NC(=O)C(Cc1ccccc1)NS(=O)(=O)c1ccc(Br)s1 (centres undefined) as the compound, how does the “activity change, negative = inhibition” value read?
The value was inactive: 6.44%.

For COc1cccc(-c2nnc3sc(CN4CCCCC4)cn23)c1, which Potency is on record?
Its Potency is active: 1.65 µM.

Which Potency does the source give for CN1CCN(C(CNC(=O)C(=O)Nc2cccc(Cl)c2)c2ccc3c(c2)OCO3)CC1 (centres undefined) here?
The Potency was inconclusive: 18.5 µM [inhibitor, single point].

Which Potency does the source give for CC(C)Cc1ccc(S(=O)(=O)N2CCC(c3ccncc3)CC2)cc1 here?
The Potency was inconclusive: 26.1 µM [inhibitor, single point].

With CCC(C)S(=O)(=O)c1oc(-c2cccs2)nc1S(=O)(=O)c1ccccc1 (centres undefined) as the compound, how does the Potency read?
Its Potency is inconclusive: 1.31 µM [inhibitor, full curve].

For CCCCS(=O)(=O)c1oc(-c2cccs2)nc1S(=O)(=O)c1ccccc1, which Potency is on record?
The Potency was active: 1.31 µM.

For Cc1ccc(OCC(O)Cn2c(=N)n(CCN3CCCCC3)c3ccccc32)cc1 (centres undefined), which Potency is on record?
Its Potency is inconclusive: 11.7 µM [inhibitor, partial curve, poor fit].

Which Potency does the source give for CCCCOc1ccc(CN2C(=O)C(=O)c3cc(Br)cc(C)c32)cc1OC here?
Its Potency is inconclusive: 20.7 µM [inhibitor, single point].

Which “activity change, negative = inhibition” value does the source give for COc1cc(OC)c(NS(=O)(=O)c2ccc3c(c2)CCCN3C(C)=O)cc1Cl here?
The value was inactive: 1.71%.

With CC(C)Oc1cccc(C2CC(=O)Nc3cc4c(cc32)OCO4)c1 (centres undefined) as the compound, how does the Potency read?
The Potency was inconclusive: 4.14 µM [inhibitor, full curve].

For COc1ccc(C2CC(=O)c3c([nH]c(C(=O)OC4CCCCCC4)c3C)C2)cc1OC (centres undefined), which “activity change, negative = inhibition” value is on record?
Its value is inactive: -4.62%.

With O=C(Nc1ccc2oc(-c3cc(Br)ccc3Cl)nc2c1)c1cc2ccccc2o1 as the compound, how does the Potency read?
The Potency was inconclusive: 6.56 µM [inhibitor, partial curve, poor fit].

For CC1CCN(S(=O)(=O)c2ccc(C(=O)Nc3sc4c(c3C(N)=O)CC(C)(C)NC4(C)C)cc2)CC1, which Potency is on record?
Its Potency is active: 3.29 µM.

For O=C1c2c(O)ccc(O)c2C(=O)c2c(NCCNCCO)ccc(NCCNCCO)c21, which Potency is on record?
Its Potency is inconclusive: 1.45 µM [inhibitor, full curve, poor fit].

Which “activity change, negative = inhibition” value does the source give for O=C(CC1(O)C(=O)N(CCc2ccccc2)c2ccc(Br)cc21)c1ccccc1O (centres undefined) here?
The value was inactive: -24.1%.

Which Potency does the source give for CCOC(=O)c1c(NC(=O)c2nc(S(C)(=O)=O)ncc2Cl)sc(C(C)=O)c1C here?
The Potency was active: 2.07 µM.

Which Potency does the source give for COc1ccc(CCN2CCC(CNC(=O)c3cnn(-c4cccc(Cl)c4)c3C3CCN(C(=O)OC(C)(C)C)CC3)CC2)cc1 here?
Its Potency is inconclusive: 26.1 µM [inhibitor, single point].

With COc1ccc(Nc2cc(C)nc(-n3nc(C)cc3C)n2)cc1Cl as the compound, how does the Potency read?
The Potency was inconclusive: 0.656 µM [inhibitor, full curve, poor fit].

With CCN(CCCNC(=O)c1cc2c(=O)[nH]c3ccccc3c2s1)c1ccccc1 as the compound, how does the Potency read?
Its Potency is inconclusive: 26.1 µM [inhibitor, single point].

For CC(C)N(C(=O)Cn1cc(S(=O)(=O)Cc2ccc(Cl)cc2)c2ccccc21)C(C)C, which “activity change, negative = inhibition” value is on record?
Its value is inactive: -3.05%.

Which Potency does the source give for CCc1nnc(SC(CC)C(=O)Nc2cccc(OC)c2)c2cc3oc(C)cc3n12 (centres undefined) here?
The Potency was inconclusive: 20.7 µM [inhibitor, single point].

For CCc1ccccc1NC(=O)CSc1nc2c(oc3ccccc32)c(=O)n1-c1ccccc1F, which “activity change, negative = inhibition” value is on record?
Its value is inactive: 26.8%.

With Cc1ccc(-c2nnc(C3CCN(S(=O)(=O)c4ccc(C)c(C)c4)CC3)o2)cc1 as the compound, how does the Potency read?
Its Potency is inconclusive: 3.69 µM [inhibitor, full curve].

For Cc1ccc(C(=O)CC2(O)C(=O)N(Cc3ccccc3)c3ccc(Br)cc32)cc1 (centres undefined), which “activity change, negative = inhibition” value is on record?
The value was inactive: 0.517%.

Which Potency does the source give for CSc1ccc(CCNC(=O)C(C)n2nc(C)c3sc4ccccc4c3c2=O)cc1 (centres undefined) here?
Its Potency is inconclusive: 5.21 µM [inhibitor, single point].

For CCc1nn(CC(=O)NCc2ccccc2Cl)c(=O)c2cccn12, which “activity change, negative = inhibition” value is on record?
The value was inactive: -5.34%.

For COc1ccccc1-c1noc(CSc2nc3ccc(C)cc3[nH]2)n1, which “activity change, negative = inhibition” value is on record?
Its value is inactive: -21.8%.

For COc1ccc(C(F)(F)F)cc1NC(=O)c1sc2nc(-c3cccs3)ccc2c1N, which Potency is on record?
The Potency was inconclusive: 16.5 µM [inhibitor, single point].

With CCOc1ccc(CNC(=O)c2ccccc2NC(=O)c2nsc3ccccc23)cc1 as the compound, how does the Potency read?
The Potency was inconclusive: 14.7 µM [inhibitor, single point].

For CCOc1ccccc1Nc1nc(-c2cccc(Cl)c2)c2c(n1)-c1ccccc1OC2, which Potency is on record?
Its Potency is inconclusive: 0.585 µM [inhibitor, single point].

With Cc1nn(CC(=O)N2CCN(c3ccccc3F)CC2)c(=O)c2cccn12 as the compound, how does the “activity change, negative = inhibition” value read?
Its value is inactive: 26.1%.

With Cn1c(/C(C#N)=C/c2ccccc2Br)nc2ccccc21 as the compound, how does the Potency read?
Its Potency is inconclusive: 26.1 µM [inhibitor, single point].

With Cc1ccc2[nH]c(=O)c3cc(C(=O)NCCCN4CCC(C)CC4)sc3c2c1 as the compound, how does the Potency read?
Its Potency is inconclusive: 13.1 µM [inhibitor, single point].

For CCN1CCOC(=O)C1CC(=O)Nc1cccc(OC)c1 (centres undefined), which Potency is on record?
The Potency was inconclusive: 14.7 µM [inhibitor, partial curve].

Which Potency does the source give for N#Cc1ccc(-c2cccs2)nc1SCc1c(F)cccc1Cl here?
The Potency was inconclusive: 2.61 µM [inhibitor, full curve].

With Cc1ccc(NC(=O)CSc2nc(-c3ccco3)cc(C(F)(F)F)n2)cc1C as the compound, how does the “activity change, negative = inhibition” value read?
The value was inactive: -11.8%.

Which Potency does the source give for Cc1cc(C)cc(Oc2coc3cc(OCC(=O)NC4CCCCC4)ccc3c2=O)c1 here?
Its Potency is inconclusive: 4.14 µM [inhibitor, full curve].

With COc1ccc(S(=O)(=O)Nc2ccc3oc4c(c3c2)CCCC4)cc1 as the compound, how does the Potency read?
The Potency was inconclusive: 23.3 µM [inhibitor, single point].
